# This is one part of the list.
# The chains behind the UniProt entries cited, without tags or fusion partners. Where a name states a change or a piece, a line headed by the entry shows the natural chain unless it says otherwise.
# UniProt Q9H9Y4: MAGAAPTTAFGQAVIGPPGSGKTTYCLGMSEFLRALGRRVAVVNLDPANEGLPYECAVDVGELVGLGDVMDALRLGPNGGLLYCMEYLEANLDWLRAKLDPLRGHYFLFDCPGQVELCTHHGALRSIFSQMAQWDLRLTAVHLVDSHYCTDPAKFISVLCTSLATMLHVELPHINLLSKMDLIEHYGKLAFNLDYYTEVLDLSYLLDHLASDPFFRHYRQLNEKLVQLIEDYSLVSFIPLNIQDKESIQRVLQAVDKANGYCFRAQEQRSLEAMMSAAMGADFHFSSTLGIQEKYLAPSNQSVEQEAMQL
# UniProt Q99795: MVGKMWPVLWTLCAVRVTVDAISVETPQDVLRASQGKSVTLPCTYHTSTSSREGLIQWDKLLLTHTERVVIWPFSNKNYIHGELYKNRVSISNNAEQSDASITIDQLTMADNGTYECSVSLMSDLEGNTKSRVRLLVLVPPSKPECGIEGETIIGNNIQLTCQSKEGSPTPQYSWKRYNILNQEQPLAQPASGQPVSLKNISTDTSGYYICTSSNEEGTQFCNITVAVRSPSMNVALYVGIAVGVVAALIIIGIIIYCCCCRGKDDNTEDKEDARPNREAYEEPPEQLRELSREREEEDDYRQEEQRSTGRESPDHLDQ
# UniProt Q9BQQ3: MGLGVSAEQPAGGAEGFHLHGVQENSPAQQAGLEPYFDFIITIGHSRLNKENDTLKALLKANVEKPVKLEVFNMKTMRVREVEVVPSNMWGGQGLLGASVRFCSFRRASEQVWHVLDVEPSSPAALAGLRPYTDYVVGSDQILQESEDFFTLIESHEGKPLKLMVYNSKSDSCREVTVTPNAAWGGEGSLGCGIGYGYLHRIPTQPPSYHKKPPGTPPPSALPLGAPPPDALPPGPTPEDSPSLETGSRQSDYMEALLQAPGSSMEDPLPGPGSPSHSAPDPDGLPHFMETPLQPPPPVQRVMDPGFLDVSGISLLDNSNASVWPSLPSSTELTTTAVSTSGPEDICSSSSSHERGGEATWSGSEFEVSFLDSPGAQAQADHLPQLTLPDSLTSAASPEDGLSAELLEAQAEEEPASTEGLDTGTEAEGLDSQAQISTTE
# UniProt Q9BVM4: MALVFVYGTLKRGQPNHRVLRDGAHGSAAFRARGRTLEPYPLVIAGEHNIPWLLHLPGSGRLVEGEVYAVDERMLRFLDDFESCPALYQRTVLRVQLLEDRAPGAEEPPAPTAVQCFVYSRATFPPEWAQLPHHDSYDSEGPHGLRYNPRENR
# UniProt Q96D09: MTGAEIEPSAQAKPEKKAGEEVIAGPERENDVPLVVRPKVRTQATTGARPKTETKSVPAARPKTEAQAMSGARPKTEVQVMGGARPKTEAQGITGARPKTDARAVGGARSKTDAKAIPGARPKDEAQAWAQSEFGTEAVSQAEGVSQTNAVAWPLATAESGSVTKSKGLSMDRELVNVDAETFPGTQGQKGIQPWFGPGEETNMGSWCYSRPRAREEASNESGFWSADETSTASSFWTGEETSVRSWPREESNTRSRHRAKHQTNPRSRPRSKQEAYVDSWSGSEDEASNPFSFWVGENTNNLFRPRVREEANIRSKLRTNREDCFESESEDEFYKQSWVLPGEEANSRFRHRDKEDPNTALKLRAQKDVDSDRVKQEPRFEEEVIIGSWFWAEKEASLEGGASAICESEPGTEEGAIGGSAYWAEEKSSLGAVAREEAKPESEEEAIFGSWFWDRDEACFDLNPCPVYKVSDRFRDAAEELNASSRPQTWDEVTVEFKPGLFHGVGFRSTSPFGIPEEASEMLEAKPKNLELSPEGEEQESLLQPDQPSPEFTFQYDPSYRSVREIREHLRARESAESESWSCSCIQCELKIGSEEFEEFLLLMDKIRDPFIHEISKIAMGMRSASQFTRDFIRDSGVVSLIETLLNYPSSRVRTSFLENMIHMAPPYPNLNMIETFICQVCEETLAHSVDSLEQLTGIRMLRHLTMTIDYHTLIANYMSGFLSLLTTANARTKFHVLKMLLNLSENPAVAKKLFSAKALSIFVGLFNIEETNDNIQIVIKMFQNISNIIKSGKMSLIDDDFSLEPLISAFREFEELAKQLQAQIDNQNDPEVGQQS
# UniProt Q9P107: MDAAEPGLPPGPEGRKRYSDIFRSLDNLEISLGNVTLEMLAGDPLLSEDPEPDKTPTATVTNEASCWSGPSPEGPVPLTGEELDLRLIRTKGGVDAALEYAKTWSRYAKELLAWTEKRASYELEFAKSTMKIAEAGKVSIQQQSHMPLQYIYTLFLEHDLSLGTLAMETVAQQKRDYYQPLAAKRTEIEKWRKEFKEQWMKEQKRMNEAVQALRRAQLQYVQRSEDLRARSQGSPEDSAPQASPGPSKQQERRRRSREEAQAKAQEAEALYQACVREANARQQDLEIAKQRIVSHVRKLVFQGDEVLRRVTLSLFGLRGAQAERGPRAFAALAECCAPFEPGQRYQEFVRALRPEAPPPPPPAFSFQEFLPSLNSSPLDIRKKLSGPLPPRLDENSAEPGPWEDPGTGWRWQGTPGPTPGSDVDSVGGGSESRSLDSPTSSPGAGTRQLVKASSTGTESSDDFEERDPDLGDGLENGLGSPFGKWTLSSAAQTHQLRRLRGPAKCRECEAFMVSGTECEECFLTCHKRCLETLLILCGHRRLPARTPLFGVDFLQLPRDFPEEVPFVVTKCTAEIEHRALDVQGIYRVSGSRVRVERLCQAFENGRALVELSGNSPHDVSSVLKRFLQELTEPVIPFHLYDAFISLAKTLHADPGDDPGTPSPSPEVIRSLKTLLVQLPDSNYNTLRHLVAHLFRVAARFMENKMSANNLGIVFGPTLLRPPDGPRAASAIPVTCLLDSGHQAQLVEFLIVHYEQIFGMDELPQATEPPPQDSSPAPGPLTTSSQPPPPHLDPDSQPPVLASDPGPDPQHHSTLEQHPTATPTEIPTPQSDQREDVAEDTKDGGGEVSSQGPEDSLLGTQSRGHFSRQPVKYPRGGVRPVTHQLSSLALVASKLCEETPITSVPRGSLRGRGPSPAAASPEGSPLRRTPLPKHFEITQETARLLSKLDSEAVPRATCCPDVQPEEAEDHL
# UniProt P63092, whole entry, looked up: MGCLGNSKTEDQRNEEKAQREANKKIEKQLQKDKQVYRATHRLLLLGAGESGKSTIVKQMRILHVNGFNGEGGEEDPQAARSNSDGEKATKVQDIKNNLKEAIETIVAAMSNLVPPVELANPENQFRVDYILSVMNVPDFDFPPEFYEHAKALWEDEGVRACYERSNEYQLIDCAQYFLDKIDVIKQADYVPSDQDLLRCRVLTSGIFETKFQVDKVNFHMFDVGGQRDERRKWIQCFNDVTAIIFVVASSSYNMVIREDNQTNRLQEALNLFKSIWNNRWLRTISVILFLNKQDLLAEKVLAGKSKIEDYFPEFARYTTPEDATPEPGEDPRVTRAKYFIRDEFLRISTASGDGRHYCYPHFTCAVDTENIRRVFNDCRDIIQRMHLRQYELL
# UniProt P80108: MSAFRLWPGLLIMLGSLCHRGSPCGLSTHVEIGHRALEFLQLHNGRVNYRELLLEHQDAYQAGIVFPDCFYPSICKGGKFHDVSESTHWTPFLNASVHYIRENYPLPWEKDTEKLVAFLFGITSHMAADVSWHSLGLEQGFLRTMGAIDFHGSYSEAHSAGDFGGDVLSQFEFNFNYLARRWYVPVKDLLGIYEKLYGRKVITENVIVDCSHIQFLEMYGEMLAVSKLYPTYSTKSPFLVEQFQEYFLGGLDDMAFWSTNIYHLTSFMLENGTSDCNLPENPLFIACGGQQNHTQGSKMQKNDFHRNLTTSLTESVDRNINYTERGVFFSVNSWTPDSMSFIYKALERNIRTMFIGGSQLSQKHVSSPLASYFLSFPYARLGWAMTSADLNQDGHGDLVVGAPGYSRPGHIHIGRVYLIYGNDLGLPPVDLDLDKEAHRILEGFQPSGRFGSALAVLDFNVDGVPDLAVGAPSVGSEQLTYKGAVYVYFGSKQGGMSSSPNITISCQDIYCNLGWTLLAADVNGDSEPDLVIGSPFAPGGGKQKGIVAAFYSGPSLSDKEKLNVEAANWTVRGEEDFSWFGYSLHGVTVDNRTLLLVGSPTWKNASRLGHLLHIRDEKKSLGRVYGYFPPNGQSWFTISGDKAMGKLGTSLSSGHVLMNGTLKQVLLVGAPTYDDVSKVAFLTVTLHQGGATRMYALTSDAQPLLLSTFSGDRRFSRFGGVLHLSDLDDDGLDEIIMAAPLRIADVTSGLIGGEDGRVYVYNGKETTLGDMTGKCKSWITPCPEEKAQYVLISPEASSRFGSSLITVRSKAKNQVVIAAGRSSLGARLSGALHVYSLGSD
# UniProt P38435: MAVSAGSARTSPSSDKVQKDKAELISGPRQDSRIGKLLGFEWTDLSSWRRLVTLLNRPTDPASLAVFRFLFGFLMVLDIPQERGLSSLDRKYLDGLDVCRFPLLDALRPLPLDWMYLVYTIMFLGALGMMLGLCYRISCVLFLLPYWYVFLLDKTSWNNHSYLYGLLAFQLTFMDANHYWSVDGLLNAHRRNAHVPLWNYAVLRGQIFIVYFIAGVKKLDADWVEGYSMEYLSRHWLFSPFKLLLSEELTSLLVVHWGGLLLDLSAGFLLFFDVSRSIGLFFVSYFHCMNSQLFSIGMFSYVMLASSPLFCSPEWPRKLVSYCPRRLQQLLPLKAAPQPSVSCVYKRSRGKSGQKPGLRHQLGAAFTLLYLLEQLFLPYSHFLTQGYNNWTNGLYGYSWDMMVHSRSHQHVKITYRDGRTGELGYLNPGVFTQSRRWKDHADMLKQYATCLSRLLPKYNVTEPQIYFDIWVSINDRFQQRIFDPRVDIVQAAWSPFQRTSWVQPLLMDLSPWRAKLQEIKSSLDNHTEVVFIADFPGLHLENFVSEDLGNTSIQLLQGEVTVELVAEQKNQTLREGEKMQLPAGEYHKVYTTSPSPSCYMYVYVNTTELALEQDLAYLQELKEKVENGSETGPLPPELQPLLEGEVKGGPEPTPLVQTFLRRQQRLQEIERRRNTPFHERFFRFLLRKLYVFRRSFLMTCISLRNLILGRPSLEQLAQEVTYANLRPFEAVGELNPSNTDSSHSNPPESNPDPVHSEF
# UniProt Q03113, whole entry, looked up: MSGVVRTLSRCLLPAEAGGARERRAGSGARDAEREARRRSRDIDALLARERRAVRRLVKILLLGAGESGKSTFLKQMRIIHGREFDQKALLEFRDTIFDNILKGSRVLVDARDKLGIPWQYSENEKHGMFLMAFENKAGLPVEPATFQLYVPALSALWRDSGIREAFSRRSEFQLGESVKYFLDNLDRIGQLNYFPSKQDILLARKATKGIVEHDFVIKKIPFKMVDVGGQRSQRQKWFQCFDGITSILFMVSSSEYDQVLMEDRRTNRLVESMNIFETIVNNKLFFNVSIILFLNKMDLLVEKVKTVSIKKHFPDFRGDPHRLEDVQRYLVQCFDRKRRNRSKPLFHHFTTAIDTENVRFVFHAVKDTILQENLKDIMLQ
# UniProt Q9HC44: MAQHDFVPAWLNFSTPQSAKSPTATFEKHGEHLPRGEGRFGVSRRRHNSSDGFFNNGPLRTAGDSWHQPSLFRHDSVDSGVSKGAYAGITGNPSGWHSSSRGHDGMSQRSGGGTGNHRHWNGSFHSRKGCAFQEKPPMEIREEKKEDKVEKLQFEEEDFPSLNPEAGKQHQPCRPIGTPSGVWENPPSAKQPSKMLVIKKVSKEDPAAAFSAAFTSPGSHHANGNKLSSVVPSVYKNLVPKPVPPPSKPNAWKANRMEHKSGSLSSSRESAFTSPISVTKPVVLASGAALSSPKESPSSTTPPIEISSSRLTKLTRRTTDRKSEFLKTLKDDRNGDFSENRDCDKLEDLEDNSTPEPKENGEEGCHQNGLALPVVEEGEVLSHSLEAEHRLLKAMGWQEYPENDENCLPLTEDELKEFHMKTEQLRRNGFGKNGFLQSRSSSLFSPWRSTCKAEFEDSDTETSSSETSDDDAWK
# UniProt Q14956: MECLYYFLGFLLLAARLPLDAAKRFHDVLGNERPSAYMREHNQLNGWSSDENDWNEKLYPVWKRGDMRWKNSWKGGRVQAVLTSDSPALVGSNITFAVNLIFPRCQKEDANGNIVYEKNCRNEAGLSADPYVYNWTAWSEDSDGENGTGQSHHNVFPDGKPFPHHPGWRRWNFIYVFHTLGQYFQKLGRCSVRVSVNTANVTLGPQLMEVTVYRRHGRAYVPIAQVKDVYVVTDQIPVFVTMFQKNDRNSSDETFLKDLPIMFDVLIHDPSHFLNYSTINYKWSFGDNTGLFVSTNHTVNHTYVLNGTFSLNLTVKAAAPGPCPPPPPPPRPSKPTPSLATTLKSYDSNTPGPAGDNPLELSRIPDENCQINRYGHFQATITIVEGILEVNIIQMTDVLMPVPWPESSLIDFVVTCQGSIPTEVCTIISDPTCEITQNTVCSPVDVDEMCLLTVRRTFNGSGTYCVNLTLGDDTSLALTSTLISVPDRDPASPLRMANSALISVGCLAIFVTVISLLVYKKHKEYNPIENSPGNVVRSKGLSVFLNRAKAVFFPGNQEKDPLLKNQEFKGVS
# Key:
# Assay in all cases: log2 fold change, soluble protein after heating vs DMSO (PISA); higher = thermal stabilisation; K562 lysate, 10 uM; active = over 0.2 and 3.5 SD of the protein, either way, in both replicates (recomputed)
# lapatinib = compound: CS(=O)(=O)CCNCc1ccc(-c2ccc3ncnc(Nc4ccc(OCc5cccc(F)c5)c(Cl)c4)c3c2)o1 [lapatinib]
# Procedure, shortened: (§1)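 To prepare the extract, K562 pellets were dounce-homogenised in PBS pH 7.4 with 1 mM MgCl2, giving crude material at 1 mg/mL protein. This was treated with 10 μM compound for 30 min, then heated in aliquots for 3 min over 48°C-58°C before pooling and addition of NP-40 to 0.5% at 4°C. Centrifugation at 21,000xg for 90 min left soluble protein in the supernatant, which TMTpro 16plex LC-MS/MS quantified with equalised channel sums. Results are log-two fold changes in thermal stability compared with solvent controls, from duplicates.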
# crizotinib = compound: C[C@@H](Oc1cc(-c2cnn(C3CCNCC3)c2)cnc1N)c1c(Cl)ccc(F)c1Cl [crizotinib]
# Procedure, shortened: as §1
# [1] = compound: C[C@H](C1=CC=C(C=C1)C(=O)NC2=C3C=CNC3=NC=C2)N
# Procedure, shortened: as §1
# duvelisib = compound: C[C@H](Nc1ncnc2nc[nH]c12)c1cc2cccc(Cl)c2c(=O)n1-c1ccccc1 [duvelisib]
# Procedure, shortened: as §1
# gandotinib = compound: Cc1cc(Nc2cc(CN3CCOCC3)c3nc(C)c(Cc4ccc(Cl)cc4F)n3n2)n[nH]1 [gandotinib]
# Procedure, shortened: as §1
# tozasertib = compound: Cc1cc(Nc2cc(N3CCN(C)CC3)nc(Sc3ccc(NC(=O)C4CC4)cc3)n2)n[nH]1 [tozasertib]
# Procedure, shortened: as §1
# doramapimod = compound: Cc1ccc(-n2nc(C(C)(C)C)cc2NC(=O)Nc2ccc(OCCN3CCOCC3)c3ccccc23)cc1 [doramapimod]
# Procedure, shortened: as §1
# [2] = compound: Cc1cccc(CC(=O)N2CCc3c2ccc(-c2cn(C)c4ncnc(N)c24)c3F)n1
# Procedure, shortened: as §1
# nilotinib = compound: Cc1cn(-c2cc(NC(=O)c3ccc(C)c(Nc4nccc(-c5cccnc5)n4)c3)cc(C(F)(F)F)c2)cn1 [nilotinib]
# Procedure, shortened: as §1
# [3] = compound: Cc1nc(Nc2n[nH]c3c2CN(C(=O)N[C@H](CN(C)C)c2ccccc2)C3(C)C)c2sccc2n1
# Procedure, shortened: as §1
# dasatinib = compound: Cc1nc(Nc2ncc(C(=O)Nc3c(C)cccc3Cl)s2)cc(N2CCN(CCO)CC2)n1 [dasatinib]
# Procedure, shortened: as §1
# [4] = compound: Cc1ncc(-c2ccnc(Nc3ccc(S(C)(=O)=O)cc3)n2)n1C(C)C
# Procedure, shortened: as §1
# [5] = compound: Cn1cc(-c2ccc3c(c2)CCN3C(=O)Cc2cccc(C(F)(F)F)c2)c2c(N)ncnc21
# Procedure, shortened: as §1
# quisinostat = compound: Cn1cc(CNCC2CCN(c3ncc(C(=O)NO)cn3)CC2)c2ccccc21 [quisinostat]
# Procedure, shortened: as §1
# tipifarnib = compound: Cn1cncc1[C@@](N)(c1ccc(Cl)cc1)c1ccc2c(c1)c(-c1cccc(Cl)c1)cc(=O)n2C [tipifarnib]
# Procedure, shortened: as §1
# [6] = compound: NC(=O)Nc1cc(-c2cccc(F)c2)sc1C(=O)N[C@H]1CCCNC1
# Procedure, shortened: as §1
# [7] = compound: NC(=O)c1cnc(N[C@@H]2CCCC[C@@H]2N)nc1Nc1cccc(-n2nccn2)c1
# Procedure, shortened: as §1
# [8] = compound: NC1(c2ccc(-c3nc4ccn5c(=O)[nH]nc5c4cc3-c3ccccc3)cc2)CCC1
# Procedure, shortened: as §1
# pictilisib = compound: CS(=O)(=O)N1CCN(Cc2cc3nc(-c4cccc5[nH]ncc45)nc(N4CCOCC4)c3s2)CC1 [pictilisib]
# Procedure, shortened: as §1
# bafetinib = compound: Cc1ccc(NC(=O)c2ccc(CN3CC[C@H](N(C)C)C3)c(C(F)(F)F)c2)cc1Nc1nccc(-c2cncnc2)n1 [bafetinib]
# Procedure, shortened: as §1
Target,log2 fold change (lapatinib),log2 fold change (crizotinib),log2 fold change [1],log2 fold change (duvelisib),log2 fold change (gandotinib),log2 fold change (tozasertib),log2 fold change (doramapimod),log2 fold change [2],log2 fold change (nilotinib),log2 fold change [3],log2 fold change (dasatinib),log2 fold change [4],log2 fold change [5],log2 fold change (quisinostat),log2 fold change (tipifarnib),log2 fold change [6],log2 fold change [7],log2 fold change [8],log2 fold change (pictilisib),log2 fold change (bafetinib)
GPN2 (UniProt Q9H9Y4),inactive: 0.041,inactive: 0.007,inactive: -0.035,inactive: 0.126,inactive: 0.068,inactive: 0.015,inactive: -0.005,inactive: 0.106,inactive: -0.065,inactive: 0.046,inactive: 0.062,inactive: -0.009,inactive: -0.046,inactive: -0.022,inactive: 0.013,inactive: -0.008,inactive: 0.01,inactive: -0.034,,
GPA33 (UniProt Q99795),inactive: -0.064,,active: -0.584,inactive: 0.154,active: 0.567,inactive: -0.015,,inactive: 0.554,inactive: -0.085,inactive: -0.093,inactive: -0.077,inactive: -0.023,inactive: -0.09,,inactive: 0.022,,inactive: -0.045,inactive: 0.047,inactive: 0.059,inactive: -0.051
GORASP1 (UniProt Q9BQQ3),inactive: -0.031,inactive: 0.015,inactive: -0.103,inactive: -0.018,inactive: 0.002,inactive: -0.087,inactive: 0.015,inactive: -0.028,inactive: 0.011,inactive: -0.02,inactive: -0.019,inactive: 0.034,inactive: 0.048,inactive: 0.034,inactive: -0.006,inactive: -0.071,inactive: 0.177,inactive: -0.11,,
GGACT (UniProt Q9BVM4),inactive: -0.029,inactive: 0.017,inactive: -0.054,inactive: -0.013,inactive: 0.041,inactive: 0.058,inactive: 0,inactive: -0.072,,,inactive: 0.074,,inactive: -0.011,inactive: -0.035,,inactive: -0.172,inactive: 0.003,inactive: -0.009,inactive: 0.026,inactive: 0.016
GPRASP2 (UniProt Q96D09),,,,,,inactive: -0.046,,,inactive: 0.046,inactive: -0.033,,inactive: 0.208,,,inactive: -0.001,,,,inactive: 0.104,inactive: 0.095
GLTP (UniProt Q9NZD2),inactive: 0.071,inactive: -0.108,inactive: 0.089,inactive: -0.069,inactive: -0.158,inactive: 0.058,inactive: -0.054,inactive: -0.166,,,inactive: -0.002,,inactive: 0.01,inactive: -0.171,,inactive: 0,inactive: 0.075,inactive: 0.056,inactive: -0.039,inactive: 0.05
GMIP (UniProt Q9P107),inactive: -0.046,inactive: -0.006,inactive: 0.029,inactive: -0.005,inactive: -0.024,inactive: -0.014,inactive: -0.049,inactive: 0.041,inactive: -0.094,inactive: -0.041,inactive: -0.097,inactive: -0.058,inactive: 0.023,inactive: -0.012,inactive: -0.017,inactive: 0.034,inactive: -0.025,inactive: -0.022,inactive: -0.015,inactive: -0.068
GOLIM4 (UniProt F8W785),,inactive: -0.014,inactive: 0.064,,inactive: -0.035,,inactive: 0.016,inactive: -0.028,,,,,,inactive: 0.09,,inactive: -0.098,,,,
GNAS isoform 3 (UniProt P63092),inactive: -0.017,inactive: -0.11,inactive: -0.058,,inactive: 0.023,,inactive: 0,inactive: -0.035,,,,,,inactive: 0,,inactive: 0.058,inactive: -0.039,inactive: -0.046,,
GPLD1 (UniProt P80108),,inactive: -0.108,,inactive: -0.049,,,inactive: 0.081,,,,inactive: -0.255,,inactive: 0,inactive: 0.108,,inactive: 0.153,,,,
GGCX (UniProt P38435),inactive: -0.159,inactive: -0.017,inactive: 0.089,inactive: 0.008,inactive: -0.232,inactive: 0.093,inactive: -0.051,inactive: 0.039,inactive: -0.003,inactive: 0.025,inactive: 0.004,inactive: -0.01,inactive: -0.12,inactive: 0.03,inactive: -0.026,inactive: 0.008,inactive: 0.033,inactive: 0.003,inactive: 0.024,inactive: -0.027
GPR180 (UniProt Q86V85),,inactive: -0.17,,,,,inactive: -0.007,,,,,,,inactive: 0.034,,inactive: -0.017,,,,
GNA12 (UniProt Q03113),inactive: -0.41,inactive: -0.133,,inactive: -0.016,,inactive: 0.205,inactive: 0.192,,,,inactive: -0.019,,inactive: 0.031,inactive: -0.069,,inactive: 0.067,inactive: 0.201,,inactive: 0.038,inactive: -0.562
GLDC (UniProt P23378),,,,,,,,,,,,,,,,,,,inactive: 0.112,inactive: 0.301
GPATCH2L (UniProt Q9NWQ4),,inactive: 0.038,,inactive: 0.052,,inactive: -0.092,inactive: 0.131,,,,inactive: -0.034,,inactive: 0.123,inactive: -0.124,,inactive: -0.214,,,,
GPBP1L1 (UniProt Q9HC44),inactive: -0.011,inactive: 0.012,inactive: -0.037,inactive: -0.028,inactive: 0.136,inactive: 0.043,inactive: 0.059,inactive: 0.042,,,inactive: -0.017,,inactive: 0.047,inactive: -0.112,,inactive: 0.025,inactive: 0.102,inactive: 0.07,inactive: 0.047,inactive: -0.016
GOLGA8R (UniProt I6L899),inactive: -0.124,inactive: -0.363,,inactive: -0.085,,,inactive: 0.073,,inactive: 0.066,inactive: -0.047,inactive: 0.007,inactive: 0.168,inactive: -0.097,inactive: -0.404,inactive: 0.118,inactive: 0.057,inactive: 0.04,inactive: -0.246,inactive: -0.068,inactive: 0.144
GPNMB (UniProt Q14956),inactive: -0.245,inactive: -0.409,inactive: -0.703,inactive: -0.081,inactive: 0.739,,inactive: -0.094,inactive: 0.765,inactive: 0.212,inactive: -0.073,inactive: 0.068,inactive: 0.445,inactive: -0.405,inactive: -0.758,inactive: 0.029,inactive: 0.362,inactive: 0.016,,inactive: -0.048,inactive: 0.083

# 2 entries from above, tab-delimited.
Target	log2 fold change (lapatinib)	log2 fold change (crizotinib)	log2 fold change [1]	log2 fold change (duvelisib)	log2 fold change (gandotinib)	log2 fold change (tozasertib)	log2 fold change (doramapimod)	log2 fold change [2]	log2 fold change (nilotinib)	log2 fold change [3]	log2 fold change (dasatinib)	log2 fold change [4]	log2 fold change [5]	log2 fold change (quisinostat)	log2 fold change (tipifarnib)	log2 fold change [6]	log2 fold change [7]	log2 fold change [8]	log2 fold change (pictilisib)	log2 fold change (bafetinib)
GMIP (UniProt Q9P107)	inactive: -0.046	inactive: -0.006	inactive: 0.029	inactive: -0.005	inactive: -0.024	inactive: -0.014	inactive: -0.049	inactive: 0.041	inactive: -0.094	inactive: -0.041	inactive: -0.097	inactive: -0.058	inactive: 0.023	inactive: -0.012	inactive: -0.017	inactive: 0.034	inactive: -0.025	inactive: -0.022	inactive: -0.015	inactive: -0.068
GPNMB (UniProt Q14956)	inactive: -0.245	inactive: -0.409	inactive: -0.703	inactive: -0.081	inactive: 0.739		inactive: -0.094	inactive: 0.765	inactive: 0.212	inactive: -0.073	inactive: 0.068	inactive: 0.445	inactive: -0.405	inactive: -0.758	inactive: 0.029	inactive: 0.362	inactive: 0.016		inactive: -0.048	inactive: 0.083

# — the supplement of paper PMC10849652
